# Source: the supplement of paper PMC7666118
# The chains behind the UniProt entries cited, without tags or fusion partners. Where a name states a change or a piece, a line headed by the entry shows the natural chain unless it says otherwise.
# UniProt Q9BRP8: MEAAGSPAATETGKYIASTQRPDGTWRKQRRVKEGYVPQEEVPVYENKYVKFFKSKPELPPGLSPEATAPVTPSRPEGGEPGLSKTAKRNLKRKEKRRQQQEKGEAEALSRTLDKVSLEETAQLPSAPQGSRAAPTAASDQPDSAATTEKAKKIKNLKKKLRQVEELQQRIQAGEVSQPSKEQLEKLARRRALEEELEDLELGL
# UniProt Q96EX3: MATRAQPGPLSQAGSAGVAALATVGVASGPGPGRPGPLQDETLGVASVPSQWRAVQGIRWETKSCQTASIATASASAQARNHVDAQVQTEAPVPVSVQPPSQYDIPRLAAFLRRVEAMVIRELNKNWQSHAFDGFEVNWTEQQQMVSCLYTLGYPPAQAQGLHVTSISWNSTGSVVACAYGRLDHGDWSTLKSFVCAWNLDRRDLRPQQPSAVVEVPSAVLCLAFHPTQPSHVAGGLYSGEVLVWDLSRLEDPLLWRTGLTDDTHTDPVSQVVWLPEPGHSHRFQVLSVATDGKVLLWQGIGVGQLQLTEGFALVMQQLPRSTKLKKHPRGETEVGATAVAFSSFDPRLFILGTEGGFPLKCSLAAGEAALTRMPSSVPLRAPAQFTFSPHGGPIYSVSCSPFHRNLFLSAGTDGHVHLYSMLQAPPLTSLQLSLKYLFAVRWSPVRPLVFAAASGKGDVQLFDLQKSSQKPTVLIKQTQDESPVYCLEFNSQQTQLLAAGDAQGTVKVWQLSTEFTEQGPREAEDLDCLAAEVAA
# UniProt Q15776: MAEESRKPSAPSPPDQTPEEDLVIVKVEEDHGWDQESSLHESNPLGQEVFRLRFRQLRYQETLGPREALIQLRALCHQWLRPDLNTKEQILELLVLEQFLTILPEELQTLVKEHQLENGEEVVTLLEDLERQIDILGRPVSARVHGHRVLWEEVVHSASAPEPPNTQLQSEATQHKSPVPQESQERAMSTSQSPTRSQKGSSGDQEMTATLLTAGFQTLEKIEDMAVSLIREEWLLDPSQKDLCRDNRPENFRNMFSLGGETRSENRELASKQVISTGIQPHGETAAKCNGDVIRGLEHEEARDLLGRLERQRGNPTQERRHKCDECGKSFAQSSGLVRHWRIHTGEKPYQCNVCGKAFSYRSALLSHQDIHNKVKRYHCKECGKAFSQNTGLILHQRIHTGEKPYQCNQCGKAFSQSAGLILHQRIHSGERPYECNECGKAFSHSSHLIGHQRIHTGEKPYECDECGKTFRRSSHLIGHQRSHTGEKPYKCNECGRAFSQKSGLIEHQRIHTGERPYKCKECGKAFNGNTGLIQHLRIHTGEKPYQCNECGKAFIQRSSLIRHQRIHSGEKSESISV
# UniProt Q8IWT0: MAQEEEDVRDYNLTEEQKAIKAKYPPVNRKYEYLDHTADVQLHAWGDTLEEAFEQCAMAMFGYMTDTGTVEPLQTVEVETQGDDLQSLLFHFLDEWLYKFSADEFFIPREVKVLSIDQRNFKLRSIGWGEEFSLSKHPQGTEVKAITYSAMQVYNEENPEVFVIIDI
# UniProt Q4G0F5, whole entry: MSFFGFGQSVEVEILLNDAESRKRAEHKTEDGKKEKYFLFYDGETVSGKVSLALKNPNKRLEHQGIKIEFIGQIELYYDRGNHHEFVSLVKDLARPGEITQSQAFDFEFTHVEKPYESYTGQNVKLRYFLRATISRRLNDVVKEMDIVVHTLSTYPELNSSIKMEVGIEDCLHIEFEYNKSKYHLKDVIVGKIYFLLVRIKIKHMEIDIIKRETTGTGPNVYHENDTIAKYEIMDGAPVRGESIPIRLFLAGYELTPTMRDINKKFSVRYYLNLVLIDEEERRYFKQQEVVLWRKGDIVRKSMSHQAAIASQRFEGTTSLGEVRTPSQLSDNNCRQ
# UniProt Q9NNW5: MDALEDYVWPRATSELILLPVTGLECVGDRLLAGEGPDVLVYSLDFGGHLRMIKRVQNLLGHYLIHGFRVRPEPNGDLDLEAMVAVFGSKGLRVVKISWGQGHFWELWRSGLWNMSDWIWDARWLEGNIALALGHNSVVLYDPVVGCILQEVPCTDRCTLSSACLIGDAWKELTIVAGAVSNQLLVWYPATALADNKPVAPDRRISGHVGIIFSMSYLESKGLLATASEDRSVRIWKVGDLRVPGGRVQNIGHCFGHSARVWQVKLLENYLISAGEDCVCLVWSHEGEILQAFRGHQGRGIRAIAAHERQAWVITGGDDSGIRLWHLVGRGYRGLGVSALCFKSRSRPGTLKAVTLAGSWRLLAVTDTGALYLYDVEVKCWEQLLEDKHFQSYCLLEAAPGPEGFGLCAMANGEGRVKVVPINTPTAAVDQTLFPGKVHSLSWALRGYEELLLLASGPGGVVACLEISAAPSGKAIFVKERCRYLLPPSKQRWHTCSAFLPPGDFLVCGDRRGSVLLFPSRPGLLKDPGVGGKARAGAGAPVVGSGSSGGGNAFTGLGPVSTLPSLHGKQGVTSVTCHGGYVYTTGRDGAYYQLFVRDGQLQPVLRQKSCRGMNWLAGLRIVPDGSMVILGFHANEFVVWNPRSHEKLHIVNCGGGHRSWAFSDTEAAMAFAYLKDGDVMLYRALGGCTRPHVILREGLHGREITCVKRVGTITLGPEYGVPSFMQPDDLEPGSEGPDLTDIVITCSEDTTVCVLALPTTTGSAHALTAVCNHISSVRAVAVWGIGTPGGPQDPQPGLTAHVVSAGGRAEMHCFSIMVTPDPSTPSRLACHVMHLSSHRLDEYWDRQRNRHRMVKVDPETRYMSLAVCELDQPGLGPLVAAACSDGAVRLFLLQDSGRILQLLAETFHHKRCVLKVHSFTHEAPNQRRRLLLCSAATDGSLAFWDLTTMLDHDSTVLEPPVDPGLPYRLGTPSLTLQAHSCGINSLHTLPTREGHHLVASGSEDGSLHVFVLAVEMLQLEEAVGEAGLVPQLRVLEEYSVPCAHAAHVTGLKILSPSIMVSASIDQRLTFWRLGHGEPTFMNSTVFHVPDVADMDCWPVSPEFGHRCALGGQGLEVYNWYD
# UniProt Q9UIJ5: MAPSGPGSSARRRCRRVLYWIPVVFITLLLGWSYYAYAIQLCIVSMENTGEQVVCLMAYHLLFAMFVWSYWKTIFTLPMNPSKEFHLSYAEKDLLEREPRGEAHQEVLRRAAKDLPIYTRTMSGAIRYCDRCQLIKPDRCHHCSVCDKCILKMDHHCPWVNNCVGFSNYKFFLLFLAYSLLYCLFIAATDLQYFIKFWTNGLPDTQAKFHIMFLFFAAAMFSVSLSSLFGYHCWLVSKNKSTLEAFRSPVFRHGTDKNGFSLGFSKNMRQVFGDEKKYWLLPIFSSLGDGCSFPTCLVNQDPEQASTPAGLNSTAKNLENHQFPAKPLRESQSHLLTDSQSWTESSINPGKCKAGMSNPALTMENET
# UniProt O95785: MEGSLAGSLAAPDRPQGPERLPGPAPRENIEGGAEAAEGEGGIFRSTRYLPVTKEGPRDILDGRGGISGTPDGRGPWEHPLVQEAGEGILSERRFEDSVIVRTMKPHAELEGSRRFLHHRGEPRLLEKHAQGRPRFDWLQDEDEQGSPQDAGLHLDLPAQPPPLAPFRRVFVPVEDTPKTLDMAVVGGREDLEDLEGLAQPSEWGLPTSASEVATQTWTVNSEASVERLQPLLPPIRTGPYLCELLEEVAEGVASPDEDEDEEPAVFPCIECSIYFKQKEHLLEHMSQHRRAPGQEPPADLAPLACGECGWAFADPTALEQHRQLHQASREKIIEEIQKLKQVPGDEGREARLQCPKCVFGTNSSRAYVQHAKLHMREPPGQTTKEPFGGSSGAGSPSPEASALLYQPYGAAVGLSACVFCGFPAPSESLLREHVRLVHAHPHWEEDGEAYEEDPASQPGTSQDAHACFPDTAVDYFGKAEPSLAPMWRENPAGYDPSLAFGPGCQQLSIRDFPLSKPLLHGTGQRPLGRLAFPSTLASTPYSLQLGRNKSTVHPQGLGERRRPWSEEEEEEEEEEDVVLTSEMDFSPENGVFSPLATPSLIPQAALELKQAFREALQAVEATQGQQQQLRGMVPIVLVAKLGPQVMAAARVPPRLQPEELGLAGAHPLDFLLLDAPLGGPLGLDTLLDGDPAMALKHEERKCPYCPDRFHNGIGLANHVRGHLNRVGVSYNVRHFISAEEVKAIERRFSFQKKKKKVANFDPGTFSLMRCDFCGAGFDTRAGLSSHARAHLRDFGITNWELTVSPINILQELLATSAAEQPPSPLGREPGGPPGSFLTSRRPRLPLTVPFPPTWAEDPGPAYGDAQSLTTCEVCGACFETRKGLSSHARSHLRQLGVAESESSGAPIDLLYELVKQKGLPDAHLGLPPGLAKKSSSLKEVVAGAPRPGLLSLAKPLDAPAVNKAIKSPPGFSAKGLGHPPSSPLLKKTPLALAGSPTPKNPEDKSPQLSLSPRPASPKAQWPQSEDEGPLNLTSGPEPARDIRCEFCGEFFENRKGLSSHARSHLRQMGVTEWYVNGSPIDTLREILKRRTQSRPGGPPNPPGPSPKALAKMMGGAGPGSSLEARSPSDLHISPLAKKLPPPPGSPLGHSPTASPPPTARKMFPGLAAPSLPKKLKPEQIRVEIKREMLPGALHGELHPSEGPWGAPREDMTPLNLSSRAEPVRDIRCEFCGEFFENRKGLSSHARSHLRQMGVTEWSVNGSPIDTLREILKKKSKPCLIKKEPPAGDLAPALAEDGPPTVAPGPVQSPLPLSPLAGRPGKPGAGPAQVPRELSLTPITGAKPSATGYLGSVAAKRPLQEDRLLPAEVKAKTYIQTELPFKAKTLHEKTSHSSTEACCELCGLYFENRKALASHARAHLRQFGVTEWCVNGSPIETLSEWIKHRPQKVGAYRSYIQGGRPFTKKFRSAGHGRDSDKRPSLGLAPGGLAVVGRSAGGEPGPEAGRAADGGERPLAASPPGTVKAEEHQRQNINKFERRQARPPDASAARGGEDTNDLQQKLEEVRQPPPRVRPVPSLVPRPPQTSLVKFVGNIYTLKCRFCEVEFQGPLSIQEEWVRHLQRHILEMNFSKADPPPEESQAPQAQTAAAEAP
# UniProt O75379: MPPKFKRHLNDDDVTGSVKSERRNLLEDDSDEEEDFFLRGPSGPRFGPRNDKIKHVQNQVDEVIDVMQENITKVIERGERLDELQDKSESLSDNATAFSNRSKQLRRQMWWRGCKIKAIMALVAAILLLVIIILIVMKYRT
# UniProt Q9Y6H3: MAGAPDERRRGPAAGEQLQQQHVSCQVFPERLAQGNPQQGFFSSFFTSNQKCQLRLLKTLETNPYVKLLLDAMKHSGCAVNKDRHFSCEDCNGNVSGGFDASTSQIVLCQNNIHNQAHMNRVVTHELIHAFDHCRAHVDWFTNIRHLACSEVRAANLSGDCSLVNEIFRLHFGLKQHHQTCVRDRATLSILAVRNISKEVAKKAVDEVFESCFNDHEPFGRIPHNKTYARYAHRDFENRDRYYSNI
# UniProt Q86T24: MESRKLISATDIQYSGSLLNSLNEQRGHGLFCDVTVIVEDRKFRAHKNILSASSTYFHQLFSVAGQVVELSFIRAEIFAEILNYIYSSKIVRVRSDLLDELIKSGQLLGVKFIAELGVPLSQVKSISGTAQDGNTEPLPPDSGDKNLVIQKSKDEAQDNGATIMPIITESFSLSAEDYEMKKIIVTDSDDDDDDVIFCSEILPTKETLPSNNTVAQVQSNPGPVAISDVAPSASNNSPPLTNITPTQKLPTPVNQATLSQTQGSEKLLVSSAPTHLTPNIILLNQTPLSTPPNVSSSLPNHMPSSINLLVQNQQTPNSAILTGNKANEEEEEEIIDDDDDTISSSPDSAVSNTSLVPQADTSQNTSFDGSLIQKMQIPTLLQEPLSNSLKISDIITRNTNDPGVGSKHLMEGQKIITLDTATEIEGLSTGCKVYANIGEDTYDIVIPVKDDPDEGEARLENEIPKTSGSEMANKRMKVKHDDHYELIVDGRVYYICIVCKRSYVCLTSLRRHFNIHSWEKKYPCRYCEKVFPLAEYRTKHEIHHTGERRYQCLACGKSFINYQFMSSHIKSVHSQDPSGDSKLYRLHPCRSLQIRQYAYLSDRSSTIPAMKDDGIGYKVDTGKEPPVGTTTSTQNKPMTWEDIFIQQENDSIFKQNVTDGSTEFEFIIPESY
# UniProt Q14119: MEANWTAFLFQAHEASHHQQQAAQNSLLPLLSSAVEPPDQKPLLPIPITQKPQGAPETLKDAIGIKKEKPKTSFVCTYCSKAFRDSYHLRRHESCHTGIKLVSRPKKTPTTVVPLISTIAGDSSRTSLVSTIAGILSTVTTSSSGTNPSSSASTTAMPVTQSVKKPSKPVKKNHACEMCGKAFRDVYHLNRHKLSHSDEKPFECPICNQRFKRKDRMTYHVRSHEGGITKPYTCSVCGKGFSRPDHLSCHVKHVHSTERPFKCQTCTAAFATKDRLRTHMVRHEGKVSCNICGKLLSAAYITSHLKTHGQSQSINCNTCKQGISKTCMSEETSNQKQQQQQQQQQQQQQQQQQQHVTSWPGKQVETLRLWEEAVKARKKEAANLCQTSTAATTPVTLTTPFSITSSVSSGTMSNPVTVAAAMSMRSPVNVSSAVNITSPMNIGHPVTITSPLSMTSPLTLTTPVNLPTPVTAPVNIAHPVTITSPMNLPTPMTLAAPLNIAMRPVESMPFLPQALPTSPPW
# Some of the results follow.
# Compound: COc1ccc(Cn2ccc3ccc(C(=O)NO)cc32)cc1
# Assay: dose-dependent thermal stabilisation call (2D-TPP, DLPTP, 10% FDR) (binary (1 = stabilised)); higher = stabilised by the compound
# Settings: system: HL-60 intact cells; concentration range 0.04-10 µM
row,Target,dose-dependent thermal stabilisation call
1,WDR55 (UniProt Q9H6Y2),inactive: 0
2,VRK2 (UniProt Q86Y07),inactive: 0
3,ZFYVE16 (UniProt Q7Z3T8),inactive: 0
4,WIBG (UniProt Q9BRP8),inactive: 0
5,XAB2 (UniProt Q9HCS7),inactive: 0
6,ZCCHC11 (UniProt Q5TAX3),inactive: 0
7,XPO1 (UniProt O14980),inactive: 0
8,WDR34 (UniProt Q96EX3),inactive: 0
9,ZNF192 (UniProt Q15776),inactive: 0
10,ZBTB8OS (UniProt Q8IWT0),inactive: 0
11,WBP4 (UniProt O75554),inactive: 0
12,VPS26B (UniProt Q4G0F5),inactive: 0
13,YARS (UniProt P54577),inactive: 0
14,ZDHHC3 (UniProt Q9NYG2),inactive: 0
15,WDR6 (UniProt Q9NNW5),inactive: 0
16,ZNF148 (UniProt Q9UQR1),inactive: 0
17,VCP (UniProt P55072),inactive: 0
18,WHSC2 (UniProt Q9H3P2),inactive: 0
19,YWHAH (UniProt Q04917),inactive: 0

row,Target,dose-dependent thermal stabilisation call
1,WDR35 (UniProt Q9P2L0),inactive: 0
2,ZDHHC2 (UniProt Q9UIJ5),inactive: 0
3,XPO5 (UniProt Q9HAV4),inactive: 0
4,WIZ (UniProt O95785),inactive: 0
5,ZFAND2B (UniProt Q8WV99),inactive: 0
6,VPS11 (UniProt Q9H270),inactive: 0
7,VAMP4 (UniProt O75379),inactive: 0
8,UTP3 (UniProt Q9NQZ2),inactive: 0
9,VAPA (UniProt Q9P0L0),inactive: 0
10,WARS2 (UniProt Q9UGM6),inactive: 0
11,WRB (UniProt O00258),inactive: 0
12,ZMYM1 (UniProt Q5SVZ6),inactive: 0
13,WDFY4 (UniProt Q6ZS81),inactive: 0
14,XRCC6BP1 (UniProt Q9Y6H3),inactive: 0
15,ZBTB33 (UniProt Q86T24),inactive: 0
16,WBP2 (UniProt Q969T9),inactive: 0
17,VEZF1 (UniProt Q14119),inactive: 0
18,WDR62 (UniProt O43379),inactive: 0
